Source: PubChem BioAssay AID587 (National Center for Advancing Translational Sciences (NCATS), 2007)
Among all 59,000 compounds or so, about 35 (0.06%) were called active. Inconclusive means that the source gave no clear call. Such entries were picked first, then a sample of the others. Cut-off read from the data, not from the text of the source: active = max dye-equivalent concentration above about 10 nM; inconclusive = between about 1.1 nM and that limit; inactive = weaker than that.

Experiment: qHTS Assay for Spectroscopic Profiling in Texas Red Spectral Region
Settings: Compound fluorescence, Texas Red channel, 547/618 nm; stronger effect = higher value
Method in brief: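 Compound titrations in 100 mM Tris pH 8.0 were incubated 15 min at room temperature and read at 547 nm excitation / 618 nm emission. Texas Red six-point standard curve on each plate converted fluorescence to dye-equivalent concentration.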

Row | SMILES | max dye-equivalent concentration
1 | COc1cc(C(C#N)N2CCOCC2)ccc1O (configuration not stated) | inconclusive: 1.5 nM
2 | O=c1c(-c2ccccc2)[n+]([O-])c2ccccc2n1O | inactive
3 | C=C1C(C(=O)N2CCOCC2)C1C(=O)N1CCOCC1 (configuration not stated) | inconclusive: 1.1 nM
4 | COc1cccc(NC(=O)c2cccs2)c1 | inconclusive: 1.7 nM
5 | Cc1n[nH]c(C)c1-c1nc2ccccc2[nH]1 | inconclusive: 1.4 nM
6 | Cn1c(=O)n(C)c2cc(S(=O)(=O)N3CCOCC3)ccc21 | inconclusive: 1.5 nM
7 | O=C(CN1C(=O)c2ccccc2C1=O)OCC(=O)N1CCc2ccccc2C1 | inconclusive: 1.9 nM
8 | CCCOc1ccc2oc(=O)c3c(c2c1)CCCN3C(=O)CN1CCc2ccccc2C1 | inconclusive: 2.4 nM
9 | Cc1ccc2c(C)nc(Nc3ncc4c(n3)CCCC4=O)nc2c1 | inconclusive: 1.3 nM
10 | Cc1cc(C)c(C#N)c(SCc2ccccc2C(=O)O)n1 | inactive
11 | CC(=O)Nc1ccc(-c2cn3ccsc3n2)cc1 | inconclusive: 1.4 nM
12 | COc1ccccc1CN1CC[C@@]2(CCCN(C(=O)c3ccncc3)C2)C1 | inactive
13 | CCCc1cc(=O)[nH]c(NCc2ccc(Cl)cc2)n1 | inconclusive: 1.1 nM
14 | COC(=O)c1cc(C)sc1NC(=O)c1cccnc1 | inconclusive: 1.3 nM
15 | CCN(CC)c1ccc(C2CC(=O)NC3=C2C(=O)CC(C)(C)C3)cc1 (configuration not stated) | inconclusive: 1.4 nM
16 | COc1ccccc1NC(=O)CSc1nnnn1-c1ccc2c(c1)OCO2 | inconclusive: 1.7 nM
17 | Cc1nnc(SCc2ccon2)n1-c1ccccc1 | inconclusive: 1.2 nM
18 | CCC(=O)Oc1ccc(-c2nc(-c3cccnc3)no2)cc1 | inconclusive: 1.9 nM
19 | CC(C)n1nc(C(=O)NCCc2ccc(S(N)(=O)=O)cc2)c2ccccc2c1=O | inconclusive: 1.2 nM
20 | CCCCSc1nnc(-c2ccc(NC(=O)CC)cc2)n1C | inconclusive: 2.8 nM
21 | O[C@@H]1C2CCCC1[C@]1(O)CCCCC1C2 (some centres not stated) | inconclusive: 1.6 nM
22 | Cc1nn(Cc2ccccc2Cl)c(C)c1NC(=O)c1noc2c1CCCCC2 | inconclusive: 1.2 nM

Row | SMILES | max dye-equivalent concentration
23 | COc1ccccc1CNC(=O)CCS(=O)(=O)c1ccc2c(c1)CCCN2C(C)=O | inconclusive: 1.9 nM
24 | CC(C)CCNC(=O)C1CCN(c2nc3ccccc3o2)CC1 | inconclusive: 1.1 nM
25 | CCOc1ccc(NC2=NCC(=O)N2CCc2ccccc2)cc1 | inconclusive: 1.3 nM
26 | Cc1c(NC(=O)C(C)Sc2nc3ccccc3c(=O)n2CCO)c(=O)n(-c2ccccc2)n1C (configuration not stated) | inconclusive: 1.4 nM
27 | O=C(Oc1ccc(-c2cn3c(n2)SCC3)cc1)c1ccccc1 | inconclusive: 1.8 nM
28 | CCOC(=O)c1ccccc1NC(=O)CSc1nnc(COc2ccccc2C)n1C | inconclusive: 1.4 nM
29 | COc1ccc(CNC(=O)CSc2nnnn2-c2ccc(O)cc2)cc1 | inconclusive: 2.2 nM
30 | N#Cc1cc(-c2ccccc2)oc1NC(=O)c1ccco1 | inconclusive: 1.1 nM
31 | CN1C(=O)C2ON(c3ccccc3)C(c3cccs3)C2C1=O (configuration not stated) | inconclusive: 1.1 nM
32 | CC1CCCN(C(=O)CSc2nnc(-c3ccc(S(=O)(=O)N4CCOCC4)cc3)n2C)C1 (configuration not stated) | inconclusive: 1.6 nM
33 | c1ccc(CCc2nc(-c3cccnc3)no2)cc1 | inconclusive: 1.6 nM
34 | CCC(c1nnnn1C(C)(C)C)N(CCOC)Cc1cc2cccc(C)c2n2nnnc12 (configuration not stated) | inconclusive: 1.4 nM
35 | COc1ccc(OCCOCC(O)CN2CCOCC2)cc1 (configuration not stated) | inconclusive: 1.2 nM
36 | CCOc1ccccc1C1CC(=O)Nc2cc(OC)c(OC)c(OC)c21 (configuration not stated) | inconclusive: 1.2 nM
37 | COc1ccccc1C1CC(c2ccc(Cl)cc2)Nc2ncnn21 (configuration not stated) | inconclusive: 1.2 nM
38 | CC(Nc1nc(N2CCN(S(C)(=O)=O)CC2)nc2ccccc12)c1ccccc1 (configuration not stated) | inconclusive: 1.1 nM
39 | O=C(NCCCn1ccnc1)C1c2ccccc2Oc2ccccc21 | inconclusive: 1.5 nM
40 | ONC=Nc1cccc2nonc12 | inconclusive: 1.2 nM
41 | CCN(CC(=O)NCc1cccs1)S(=O)(=O)c1cccc(C(C)=O)c1 | inconclusive: 1.6 nM
42 | CCOC(=O)Cc1csc(NC(=O)c2ccoc2C)n1 | inconclusive: 1.1 nM
43 | COc1ccc(OC)c2[nH]c(=O)c(CCNC(=O)c3ccc(Br)o3)cc12 | inconclusive: 1.5 nM
44 | COC(=O)c1[nH]c2ccc(C)cc2c1NC(=O)CN1CCCc2ccccc21 | inconclusive: 1.6 nM

Row | SMILES | max dye-equivalent concentration
45 | CN(C)Cc1cc(C(C)(C)c2cc(CN(C)C)c(O)c(CN(C)C)c2)cc(CN(C)C)c1O | inconclusive: 1.5 nM
46 | Cc1ccc(-c2noc(CCCC(=O)N3CCOCC3)n2)cc1 | inconclusive: 2.1 nM
47 | Cc1nc2ccccc2n1-c1nc(-c2ccco2)cc(C(F)(F)F)n1 | inconclusive: 1.6 nM
48 | CC1Cc2ccccc2N1C(=O)COC(=O)Cn1cnc2ccccc2c1=O (configuration not stated) | inconclusive: 1.1 nM
49 | COc1ccc(C)cc1NC(=O)CSc1nnc(COc2ccc(Cl)cc2)n1Cc1ccco1 | inconclusive: 1.2 nM
50 | CCSc1nnc(-c2ccc(S(=O)(=O)NCc3cccs3)cc2)o1 | inconclusive: 1.3 nM
51 | COc1cc(NC(=O)C2CCN(S(=O)(=O)c3cccc4nonc34)CC2)cc(OC)c1 | inconclusive: 1.2 nM
52 | CCCCCC(=O)Nc1ccc2oc(-c3ccncc3)nc2c1 | inactive
53 | Cc1nnc(N)nc1C | inconclusive: 1.2 nM
54 | COc1ccc(-c2nc3cnc(OC)nc3n(CCC#N)c2=O)cc1 | inactive
55 | COC(=O)c1ccc(CSc2nnnn2-c2ccccc2)o1 | inconclusive: 1.3 nM
56 | COc1ccccc1NS(=O)(=O)c1cc(C(=O)NCCN2CCOCC2)ccc1Cl | inconclusive: 1.2 nM
57 | Cn1c(Cn2nnc3ccccc32)nnc1SCC(=O)c1ccc(F)cc1 | inconclusive: 1.1 nM
58 | COc1ccc(-c2cc([C@H](O)[C@@H]3CCCCN3)c3ccccc3n2)cc1 | inactive
59 | Cc1ccccc1CN1CCN(CC(=O)NCc2ccco2)C1=O | inconclusive: 1.2 nM
60 | O=C1c2ccccc2C(=O)N1CCCC(=O)N1CCCc2ccccc21 | inconclusive: 1.2 nM
61 | Cc1cccn2c(=O)c3cc(C#N)c(=NC(=O)c4ccc5c(c4)OCO5)n(CC(C)C)c3nc12 | inactive
62 | C=CCn1cnc2c(c1=O)c1nc3ccccc3nc1n2Cc1ccccc1 | inconclusive: 1.2 nM
63 | COc1ccc(N2C(=O)C(Cl)=C(N(CCO)Cc3ccccc3)C2=O)cc1 | inconclusive: 1.4 nM
64 | O=C(COC(=O)C1(c2ccc(F)cc2)CCCC1)N1CCN(C(=O)c2ccco2)CC1 | inconclusive: 1.9 nM
65 | O=C(COC(=O)c1ccco1)Nc1ccc2c(c1)OCCO2 | inconclusive: 2.1 nM
66 | CCCCOc1ccc(-c2nnc(-c3ccncc3)o2)cc1 | inconclusive: 1.4 nM

Structural class, the entries above containing two or more sulfur atoms
Row | SMILES | max dye-equivalent concentration
32 | CC1CCCN(C(=O)CSc2nnc(-c3ccc(S(=O)(=O)N4CCOCC4)cc3)n2C)C1 (configuration not stated) | inconclusive: 1.6 nM
41 | CCN(CC(=O)NCc1cccs1)S(=O)(=O)c1cccc(C(C)=O)c1 | inconclusive: 1.6 nM
50 | CCSc1nnc(-c2ccc(S(=O)(=O)NCc3cccs3)cc2)o1 | inconclusive: 1.3 nM

The list goes on.

Row | SMILES | max dye-equivalent concentration
67 | Nc1c(S(=O)(=O)O)cc(Nc2ccc(Nc3nc(Cl)nc(Nc4ccc(S(=O)(=O)O)cc4)n3)c(S(=O)(=O)O)c2)c2c1C(=O)c1ccccc1C2=O | inconclusive: 1.4 nM
68 | COc1cccc(C(=O)Nc2cccc(OC(C)=O)c2)c1 | inconclusive: 1.7 nM
69 | Cn1c(SCCN2CCCCC2)nnc1-c1ccccc1Br | inconclusive: 1.4 nM
70 | Cc1cc(C)c2c(=O)[nH]n(C(C)C)c2n1 | inconclusive: 1.1 nM
71 | CC(=O)c1c(C)c2c(n1CCN(C)C)CCCC2 | inconclusive: 1.7 nM
72 | COc1ccc(Nc2cc(C(=O)NCCCN3CCN(C)CC3)c3ccccc3n2)cc1OC | inconclusive: 1.3 nM
73 | CCNc1ncc2nc(-c3cccs3)c(=O)n(Cc3cccc(OC)c3)c2n1 | inactive
74 | NS(=O)(=O)c1ccc(CCNC(=O)COC(=O)C2CCCN2C(=O)c2cccs2)cc1 (configuration not stated) | inconclusive: 1.2 nM
75 | CCCc1nc2ccccc2c(C(=O)OC2CCOC2=O)c1CC (configuration not stated) | inconclusive: 2.1 nM
76 | Cc1cc(C)nc(SCCc2cccc[n+]2C)n1 | inconclusive: 1.1 nM
77 | CCN1C(=O)/C(=C/N2CCc3ccccc32)SC1=S | inactive
78 | CC(C)(C)c1cnnn1-c1ccc(-c2csc(N)n2)cc1 | inconclusive: 2.6 nM
79 | COc1cc(-c2[o+]c3cc(O)cc(O)c3cc2O)cc(O)c1O | inactive
80 | CN1CCN(CC#CC(C)(O)C2CC3C=CC2C3)CC1 (configuration not stated) | inconclusive: 2 nM
81 | COc1cc(NC(=O)c2cccc(Cl)c2)c(OC)cc1NC(=O)CN1CCOCC1 | inconclusive: 1.7 nM
82 | Cc1cc(S(=O)(=O)N2CCN(c3ncccn3)CC2)ccc1-n1cnnn1 | inconclusive: 2.3 nM
83 | C[C@@]12CCC(=O)C=C1CC[C@@H]1[C@@H]2[C@H](O)C[C@]2(C)[C@@H]1CC[C@]2(O)C(=O)COC(=O)CCC(=O)O | inactive
84 | CCN(CC)P1(=O)OC(c2cc(OC)c(OC)c(OC)c2)=Nc2c1c(C)nn2-c1ccccc1 (configuration not stated) | inconclusive: 2.1 nM
85 | COCCCn1c(SCC(=O)NCc2ccco2)nc2sc3c(c2c1=O)CCC3 | inconclusive: 1.3 nM
86 | Cc1ccc(-c2nn(CC(=O)NCCN3CCOCC3)c(=O)c3ccccc23)cc1 | inconclusive: 1.6 nM
87 | Cn1nnnc1SCC(=O)Nc1cc(C(C)(C)C)nn1-c1ccccc1 | inconclusive: 2.2 nM
